This is one part of the list.
Columns and labels:
Test in all cases: log2 fold change, soluble protein after heating vs DMSO (PISA); higher = thermal stabilisation; K562 lysate, 10 uM; active = over 0.2 and 3.5 SD of the protein, either way, in both replicates (recomputed)
[1] = compound: C1=CC=C(C=C1)[C@H](COC2=CC3=C(C=C2)NC(=O)N3)NC(=O)C4=CC=CN(C4=O)CC5=CC(=C(C=C5)F)F
Procedure, shortened: (§1)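 Dounce homogenisation of K562 pellets in PBS pH 7.4 with 1 mM MgCl2 produced a crude extract, used at 1 mg/mL protein. Exposure to 10 μM compound lasted 30 min, and aliquots were then heated for 3 min across 48°C-58°C, pooled and brought to 0.5% NP-40 at 4°C. The supernatant after 21,000xg for 90 min was quantified by TMTpro 16plex LC-MS/MS with channel sums equalised. Duplicate values are given as log-two fold change in thermal stability relative to solvent controls.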

By UniProt entry, the sequences of proteins in these tests, tags left out. Where a name states a change or a piece, a line headed by the entry shows the natural chain unless it says otherwise.
UniProt Q9NVC6: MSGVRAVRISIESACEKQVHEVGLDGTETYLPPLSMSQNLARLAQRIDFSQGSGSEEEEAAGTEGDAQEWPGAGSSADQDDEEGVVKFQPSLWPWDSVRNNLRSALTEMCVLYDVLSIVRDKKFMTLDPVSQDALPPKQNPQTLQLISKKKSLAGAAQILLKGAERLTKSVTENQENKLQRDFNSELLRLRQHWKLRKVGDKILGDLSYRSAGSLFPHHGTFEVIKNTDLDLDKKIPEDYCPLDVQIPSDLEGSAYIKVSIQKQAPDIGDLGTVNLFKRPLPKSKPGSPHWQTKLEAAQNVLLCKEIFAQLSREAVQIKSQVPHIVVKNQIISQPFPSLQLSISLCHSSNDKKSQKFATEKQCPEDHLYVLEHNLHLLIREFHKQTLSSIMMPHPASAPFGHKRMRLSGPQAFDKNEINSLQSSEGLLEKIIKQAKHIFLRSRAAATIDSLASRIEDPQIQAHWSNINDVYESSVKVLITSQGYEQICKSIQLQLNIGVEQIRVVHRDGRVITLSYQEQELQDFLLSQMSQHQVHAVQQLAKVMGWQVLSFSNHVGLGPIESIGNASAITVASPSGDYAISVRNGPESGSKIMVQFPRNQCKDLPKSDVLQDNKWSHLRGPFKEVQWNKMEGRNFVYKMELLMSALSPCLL
UniProt A0JLT2: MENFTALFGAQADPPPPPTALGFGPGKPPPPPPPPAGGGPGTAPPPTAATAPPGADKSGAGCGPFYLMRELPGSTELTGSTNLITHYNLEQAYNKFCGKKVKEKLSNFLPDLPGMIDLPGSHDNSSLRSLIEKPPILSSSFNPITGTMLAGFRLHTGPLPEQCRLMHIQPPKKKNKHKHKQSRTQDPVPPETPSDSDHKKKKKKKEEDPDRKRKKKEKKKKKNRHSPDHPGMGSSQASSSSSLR
UniProt Q96IZ6: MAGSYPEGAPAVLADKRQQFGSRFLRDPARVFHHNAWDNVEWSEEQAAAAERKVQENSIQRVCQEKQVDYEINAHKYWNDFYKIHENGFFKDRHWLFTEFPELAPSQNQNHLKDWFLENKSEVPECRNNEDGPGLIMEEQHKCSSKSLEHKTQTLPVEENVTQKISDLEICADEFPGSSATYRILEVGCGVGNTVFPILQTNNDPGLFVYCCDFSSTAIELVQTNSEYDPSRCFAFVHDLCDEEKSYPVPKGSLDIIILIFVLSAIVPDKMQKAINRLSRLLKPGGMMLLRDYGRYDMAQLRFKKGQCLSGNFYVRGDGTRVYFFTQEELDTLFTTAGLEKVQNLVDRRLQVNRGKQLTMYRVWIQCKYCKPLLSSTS
UniProt Q86V88: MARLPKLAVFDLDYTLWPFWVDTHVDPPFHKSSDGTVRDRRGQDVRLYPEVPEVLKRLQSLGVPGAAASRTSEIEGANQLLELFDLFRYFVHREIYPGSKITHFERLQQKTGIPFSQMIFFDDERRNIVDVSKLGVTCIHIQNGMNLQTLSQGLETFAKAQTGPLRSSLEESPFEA
UniProt Q12866: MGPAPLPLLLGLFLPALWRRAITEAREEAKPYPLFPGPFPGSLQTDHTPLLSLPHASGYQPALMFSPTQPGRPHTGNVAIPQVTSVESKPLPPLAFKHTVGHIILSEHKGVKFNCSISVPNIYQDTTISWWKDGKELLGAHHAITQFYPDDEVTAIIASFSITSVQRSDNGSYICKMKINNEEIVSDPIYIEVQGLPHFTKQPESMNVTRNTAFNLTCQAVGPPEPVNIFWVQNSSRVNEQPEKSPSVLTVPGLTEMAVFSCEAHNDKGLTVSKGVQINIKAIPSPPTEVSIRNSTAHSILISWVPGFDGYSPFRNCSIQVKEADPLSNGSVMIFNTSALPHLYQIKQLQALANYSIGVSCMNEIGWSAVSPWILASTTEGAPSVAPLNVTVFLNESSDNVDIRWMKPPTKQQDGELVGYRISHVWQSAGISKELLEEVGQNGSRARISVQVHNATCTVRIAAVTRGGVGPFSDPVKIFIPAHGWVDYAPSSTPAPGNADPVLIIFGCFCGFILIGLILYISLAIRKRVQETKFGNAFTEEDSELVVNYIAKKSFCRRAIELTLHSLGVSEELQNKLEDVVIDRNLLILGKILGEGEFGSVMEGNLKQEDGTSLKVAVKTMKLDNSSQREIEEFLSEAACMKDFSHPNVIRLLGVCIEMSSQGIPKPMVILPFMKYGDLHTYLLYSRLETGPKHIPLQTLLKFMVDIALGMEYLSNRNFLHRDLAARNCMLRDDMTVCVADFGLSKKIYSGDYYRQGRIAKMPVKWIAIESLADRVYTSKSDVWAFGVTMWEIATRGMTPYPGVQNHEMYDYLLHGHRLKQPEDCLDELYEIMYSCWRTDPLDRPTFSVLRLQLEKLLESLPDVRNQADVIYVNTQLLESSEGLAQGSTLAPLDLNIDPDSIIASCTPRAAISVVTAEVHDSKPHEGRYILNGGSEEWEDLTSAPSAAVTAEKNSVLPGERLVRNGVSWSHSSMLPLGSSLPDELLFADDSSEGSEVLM
UniProt Q96G25: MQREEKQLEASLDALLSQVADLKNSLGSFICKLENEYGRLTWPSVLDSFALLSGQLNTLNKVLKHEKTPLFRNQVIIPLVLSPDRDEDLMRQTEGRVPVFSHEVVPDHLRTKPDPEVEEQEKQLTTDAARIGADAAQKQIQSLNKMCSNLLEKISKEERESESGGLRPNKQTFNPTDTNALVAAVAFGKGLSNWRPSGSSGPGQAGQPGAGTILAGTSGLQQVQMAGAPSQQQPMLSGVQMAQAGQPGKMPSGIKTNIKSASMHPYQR
UniProt Q14566: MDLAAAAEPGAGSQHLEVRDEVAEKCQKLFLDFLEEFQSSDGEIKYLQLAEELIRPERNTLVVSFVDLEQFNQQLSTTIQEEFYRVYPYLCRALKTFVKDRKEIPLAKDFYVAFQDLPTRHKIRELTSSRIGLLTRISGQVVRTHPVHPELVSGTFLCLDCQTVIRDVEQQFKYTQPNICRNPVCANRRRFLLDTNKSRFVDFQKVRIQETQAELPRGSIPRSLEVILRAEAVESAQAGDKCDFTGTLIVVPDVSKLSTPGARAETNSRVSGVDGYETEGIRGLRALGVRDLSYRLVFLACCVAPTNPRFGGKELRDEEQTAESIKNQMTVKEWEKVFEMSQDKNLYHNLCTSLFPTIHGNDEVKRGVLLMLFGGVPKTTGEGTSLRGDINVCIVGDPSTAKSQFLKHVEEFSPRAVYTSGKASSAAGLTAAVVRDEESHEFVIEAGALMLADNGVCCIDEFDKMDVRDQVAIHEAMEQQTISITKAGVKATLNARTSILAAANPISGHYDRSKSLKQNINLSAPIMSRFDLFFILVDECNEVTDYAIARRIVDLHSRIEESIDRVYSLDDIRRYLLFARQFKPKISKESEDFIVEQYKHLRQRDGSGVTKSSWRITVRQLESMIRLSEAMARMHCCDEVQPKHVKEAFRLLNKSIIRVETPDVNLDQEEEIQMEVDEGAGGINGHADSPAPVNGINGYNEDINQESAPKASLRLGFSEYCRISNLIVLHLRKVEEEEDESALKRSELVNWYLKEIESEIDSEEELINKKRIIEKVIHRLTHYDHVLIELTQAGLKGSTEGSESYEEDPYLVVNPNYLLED
UniProt Q6ZWT7: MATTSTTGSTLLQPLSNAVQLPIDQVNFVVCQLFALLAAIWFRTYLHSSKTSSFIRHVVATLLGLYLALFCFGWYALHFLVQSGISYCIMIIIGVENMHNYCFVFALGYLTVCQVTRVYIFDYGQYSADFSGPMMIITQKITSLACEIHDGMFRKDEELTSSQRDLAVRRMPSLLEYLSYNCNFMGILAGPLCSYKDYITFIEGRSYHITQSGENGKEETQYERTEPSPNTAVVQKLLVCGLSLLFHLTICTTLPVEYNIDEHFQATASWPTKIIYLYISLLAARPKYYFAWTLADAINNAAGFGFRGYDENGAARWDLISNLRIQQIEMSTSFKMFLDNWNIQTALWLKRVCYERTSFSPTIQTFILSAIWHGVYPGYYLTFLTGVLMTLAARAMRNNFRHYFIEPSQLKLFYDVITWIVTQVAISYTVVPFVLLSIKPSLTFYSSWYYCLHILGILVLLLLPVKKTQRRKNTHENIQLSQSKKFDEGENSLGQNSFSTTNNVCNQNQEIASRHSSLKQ

[2] = compound: CC1=C(SC2=C1C(=N[C@H](C3=NN=C(N32)C)CC(=O)N)C4=CC=C(C=C4)Cl)C
Procedure, shortened: as §1

[3] = compound: CC1=C2C(=CC=C1)N=C(N(C2=O)C3=CC=CC=C3C)CN4C=NC5=C(N=CN=C54)N
Procedure, shortened: as §1

[4] = compound: Cc1sc2c(c1C)C(c1ccc(Cl)cc1)=N[C@@H](CC(=O)OC(C)(C)C)c1nnc(C)n1-2
Procedure, shortened: as §1

[5] = compound: c1ccc([C@@H]2C[C@H]2NC2CCNCC2)cc1
Procedure, shortened: as §1

Measured: log2 fold change

MED17 (UniProt Q9NVC6)
inactive: [1] 0.009 | [2] 0.021 | [3] 0.016 | [4] 0.021 | [5] 0.02

MEAF6 isoform 3 (UniProt Q9HAF1)
inactive: [1] 0.048 | [2] 0.039 | [3] 0.008 | [4] 0.034 | [5] -0.125

MED19 (UniProt A0JLT2)
inactive: [1] -0.103 | [2] 0.161 | [3] 0.019 | [4] -0.009 | [5] 0.054

METTL2A (UniProt Q96IZ6)
inactive: [1] 0.003 | [2] -0.004 | [3] 0.046 | [4] 0 | [5] 0.106

MDP1 (UniProt Q86V88)
inactive: [1] 0.09 | [2] 0.007 | [3] 0.039 | [4] -0.005 | [5] 0.03

Two entries drawn at random from those above:
MED17 (UniProt Q9NVC6)
inactive: [1] 0.009 | [2] 0.021 | [3] 0.016 | [4] 0.021 | [5] 0.02

MDP1 (UniProt Q86V88)
inactive: [1] 0.09 | [2] 0.007 | [3] 0.039 | [4] -0.005 | [5] 0.03

Carrying on.

MERTK (UniProt Q12866)
inactive: [1] 0.014 | [2] -0.054 | [3] 0.06 | [4] -0.012 | [5] -0.043

MED8 isoform 2 (UniProt Q96G25)
inactive: [1] -0.047 | [2] -0.033 | [3] -0.048 | [4] -0.039 | [5] 0.063

MCM6 (UniProt Q14566)
inactive: [1] -0.016 | [2] 0 | [3] 0.018 | [4] 0.013 | [5] -0.002

MBOAT2 (UniProt Q6ZWT7)
inactive: [1] -0.011 | [2] 0 | [3] 0.121 | [4] -0.022 | [5] -0.017

Source: the supplement of paper PMC10849652
